Test results published in patent publication US20100105626A1, “Novel Analogues of Antimicrobial and Anticancer Peptide Synthesized and Produced from Gaegurin 5” (PROMEDITECH, INC, priority 2006, published 2010).
Not every detail of the peptide structures is certain; ends, links or a residue may be inferred. Where no end group is shown, it is not given here.

How the values were obtained:
Assay in all cases: Antimicrobial activity, MIC by standard broth microdilution
Assay type in all cases: cell-based
[1] = test system: Bacillus subtilis; settings: Gram-positive
Description: (§1) Antimicrobial activity was determined by the standard broth microdilution method by measuring the MIC values against diverse microorganisms. In brief, Luria-Bertani medium was used as a broth medium. 30 μl of sample (2 mg/ml) prepared from Example 1 and 270 μl of fluid medium were added to lane 1 well of 96-well microtiter plates and to remaining lanes of the wells, only 150 μl of medium was added thereto. 150 μl of sample solution in lane 1 was mixed with lane 2 to prepare diluted solution (×2). With similar diluting method to the above described method, serial dilution was performed to prepare 150 μl of diluted drug solution (×2) to the extent that the final drug concentration reached to the range from 1.6 to 200 μg/ml in respective well. 25 μl of the cell culture being grown to 10^6-10^8 colony forming unit/ml in 3 ml of broth was added to each well and the micro-titer plate was incubated for overnight at 37° C.

[2] = test system: Escherichia coli; settings: Gram negative
Description: as §1

[3] = test system: Klebsiella pneumoniae; settings: Gram negative
Description: as §1

[4] = test system: Micrococcus luteus; settings: Gram-positive
Description: as §1

[5] = test system: Proteus mirabilis; settings: Gram negative
Description: as §1

[6] = test system: Pseudomonas aeruginosa; settings: Gram negative
Description: as §1

[7] = test system: Salmonella typhimurium; settings: Gram negative
Description: as §1

[8] = test system: Staphylococcus aureus; settings: Gram-positive
Description: as §1

[9] = test system: Staphylococcus epidermis; settings: Gram-positive
Description: as §1

[10] = test system: Propionibacterium acnes ATCC 3314
[11] = test system: Propionibacterium acnes ATCC 3320
[12] = test system: Propionibacterium acnes ATCC 5012

Row | Substance | Minimal inhibitory concentration [1] [µg/mL] | Minimal inhibitory concentration [2] [µg/mL] | Minimal inhibitory concentration [3] [µg/mL] | Minimal inhibitory concentration [4] [µg/mL] | Minimal inhibitory concentration [5] [µg/mL] | Minimal inhibitory concentration [6] [µg/mL] | Minimal inhibitory concentration [7] [µg/mL] | Minimal inhibitory concentration [8] [µg/mL] | Minimal inhibitory concentration [9] [µg/mL] | Minimal inhibitory concentration [10] [μl/ml] | Minimal inhibitory concentration [11] [μl/ml] | Minimal inhibitory concentration [12] [μl/ml]
1 | FLGWLFKWAKK-NH2 [model 25, F-L-G-W-L-F-K-W-A-K-K] | 6.3 | 12.5 | 12.5 | 6.3 | >200 | 25 | 50 | 3.2 | 6.3 |  |  | 
2 | FLGWLFKWAWK-NH2 [model 27, F-L-G-W-L-F-K-W-A-W-K] | 6.3 | 25 |  | 6.3 | >200 | >200 | 100 | 3.2 | 6.3 |  |  | 
3 | FLKWLFKWAKK-NH2 [model 26, F-L-K-W-L-F-K-W-A-K-K] | 3.2 | 12.5 | 12.5 | 6.3 | >200 | 12.5 | 50 | 3.2 | 6.3 | 3.2 | 6.3 | 3.2
4 | FLWWLFKWAWK-NH2 [model 28, F-L-W-W-L-F-K-W-A-W-K] | 3.2 | >200 | >200 | 3.2 | >200 | >200 | >200 | 3.2 | 3.2 |  |  | 
